Measurements: paper PMC10436556

Protein sequences, listed by entry. Tags and fused reporters are not part of them. Lines headed by an entry give the natural chain unless they say otherwise; changes in a name come on top.
UniProt O15527, whole entry: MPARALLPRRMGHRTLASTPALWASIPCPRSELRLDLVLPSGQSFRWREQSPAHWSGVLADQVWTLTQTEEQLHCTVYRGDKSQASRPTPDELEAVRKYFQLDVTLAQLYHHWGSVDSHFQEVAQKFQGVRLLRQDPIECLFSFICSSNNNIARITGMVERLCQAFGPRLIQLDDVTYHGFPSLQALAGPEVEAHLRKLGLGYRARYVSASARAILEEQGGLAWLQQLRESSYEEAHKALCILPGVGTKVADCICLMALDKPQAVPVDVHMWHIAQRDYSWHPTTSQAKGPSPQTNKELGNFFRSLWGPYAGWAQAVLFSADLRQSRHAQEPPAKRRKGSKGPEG
UniProt Q14653: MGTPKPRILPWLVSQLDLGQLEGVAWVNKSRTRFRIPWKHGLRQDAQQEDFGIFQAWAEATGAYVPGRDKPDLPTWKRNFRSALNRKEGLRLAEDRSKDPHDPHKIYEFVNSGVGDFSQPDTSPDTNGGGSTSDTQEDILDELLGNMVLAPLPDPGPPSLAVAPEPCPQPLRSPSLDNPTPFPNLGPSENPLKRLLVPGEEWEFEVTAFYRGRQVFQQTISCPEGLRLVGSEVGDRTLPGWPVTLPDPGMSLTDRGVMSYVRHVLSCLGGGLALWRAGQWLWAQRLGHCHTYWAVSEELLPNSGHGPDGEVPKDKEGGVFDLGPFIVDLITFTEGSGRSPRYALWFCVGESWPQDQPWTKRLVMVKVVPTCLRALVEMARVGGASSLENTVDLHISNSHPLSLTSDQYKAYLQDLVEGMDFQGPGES

What was measured:
Test in all cases: EMSA
[1] = target: OGG1 (recombinant, ProSpec ENZ-253) (UniProt O15527); settings: WCL/NE: 10 mM Tris-HCl pH 7.5, 1 mM EDTA, 50 mM NaCl, 2 mM DTT, 5% glycerol, 0.5% NP-40, BSA, poly(I:C), RT 20 min, His-IRF3: 10 mM Tris pH 7.5, 50 mM KCl, 1 mM DTT, commercial protein, letters put together from the description
[2] = tested on: OGG1 (recombinant, ProSpec ENZ-253) + His-IRF3; settings: higher complex with both proteins, WCL/NE: 10 mM Tris-HCl pH 7.5, 1 mM EDTA, 50 mM NaCl, 2 mM DTT, 5% glycerol, 0.5% NP-40, BSA, poly(I:C), RT 20 min, His-IRF3: 10 mM Tris pH 7.5, 50 mM KCl, 1 mM DTT, commercial protein, protein details: His, letters put together from the description
His-IRF3 = His-IRF3 (UniProt Q14653); settings: without OGG1, WCL/NE: 10 mM Tris-HCl pH 7.5, 1 mM EDTA, 50 mM NaCl, 2 mM DTT, 5% glycerol, 0.5% NP-40, BSA, poly(I:C), RT 20 min, His-IRF3: 10 mM Tris pH 7.5, 50 mM KCl, 1 mM DTT, recombinant protein, protein details: His

Q: Does “CTGTGTTTTCACTTTTCCTACATCAGCTGGGACTGCCCTTCTGTCAGGGATAA (double strand) [Pr1]” bind ([1]; 8-oxoG at top position 29)?
A: binds

Q: Does “CTGTGTTTTCACTTTTCCTACATCAGCTGGGACTGCCCTTCTGTCAGGGATAA (double strand) [Pr1]” bind ([2]; 8-oxoG at top position 29)?
A: binds

Q: Does “CTGTGTTTTCACTTTTCCTACATCAGCTGGGACTGCCCTTCTGTCAGGGATAA (double strand) [Pr1]” bind (His-IRF3; 8-oxoG at top position 29, letters put together from the description)?
A: binds

Q: Does “CTGTGTTTTCACTTTTCCTACATCAGCTGGGACTGCCCTTCTGTCAGGGATAA (double strand) [Pr0]” bind (His-IRF3)?
A: binds

Q: Does “CTGTGTTTTCACTTTTCCTACATCAGCTGGGACTGCCCTTCTGTCAGGGATAA (double strand) [Pr2]” bind ([1]; 8-oxoG at top position 48)?
A: binds

Q: Does “CTGTGTTTTCACTTTTCCTACATCAGCTGGGACTGCCCTTCTGTCAGGGATAA (double strand) [Pr2]” bind ([2]; 8-oxoG at top position 48)?
A: binds

Q: Does “CTGTGTTTTCACTTTTCCTACATCAGCTGGGACTGCCCTTCTGTCAGGGATAA (double strand) [Pr2]” bind (His-IRF3; 8-oxoG at top position 48, letters put together from the description)?
A: binds

The exact form of at least one protein or probe is not confirmed. For some of these results: At least one verdict was read from the data and is not stated in words by the source.
